From article PMC5509740 come the findings set out here.

The chains behind the UniProt entries cited, without tags or fusion partners.
UniProt Q3UHD9: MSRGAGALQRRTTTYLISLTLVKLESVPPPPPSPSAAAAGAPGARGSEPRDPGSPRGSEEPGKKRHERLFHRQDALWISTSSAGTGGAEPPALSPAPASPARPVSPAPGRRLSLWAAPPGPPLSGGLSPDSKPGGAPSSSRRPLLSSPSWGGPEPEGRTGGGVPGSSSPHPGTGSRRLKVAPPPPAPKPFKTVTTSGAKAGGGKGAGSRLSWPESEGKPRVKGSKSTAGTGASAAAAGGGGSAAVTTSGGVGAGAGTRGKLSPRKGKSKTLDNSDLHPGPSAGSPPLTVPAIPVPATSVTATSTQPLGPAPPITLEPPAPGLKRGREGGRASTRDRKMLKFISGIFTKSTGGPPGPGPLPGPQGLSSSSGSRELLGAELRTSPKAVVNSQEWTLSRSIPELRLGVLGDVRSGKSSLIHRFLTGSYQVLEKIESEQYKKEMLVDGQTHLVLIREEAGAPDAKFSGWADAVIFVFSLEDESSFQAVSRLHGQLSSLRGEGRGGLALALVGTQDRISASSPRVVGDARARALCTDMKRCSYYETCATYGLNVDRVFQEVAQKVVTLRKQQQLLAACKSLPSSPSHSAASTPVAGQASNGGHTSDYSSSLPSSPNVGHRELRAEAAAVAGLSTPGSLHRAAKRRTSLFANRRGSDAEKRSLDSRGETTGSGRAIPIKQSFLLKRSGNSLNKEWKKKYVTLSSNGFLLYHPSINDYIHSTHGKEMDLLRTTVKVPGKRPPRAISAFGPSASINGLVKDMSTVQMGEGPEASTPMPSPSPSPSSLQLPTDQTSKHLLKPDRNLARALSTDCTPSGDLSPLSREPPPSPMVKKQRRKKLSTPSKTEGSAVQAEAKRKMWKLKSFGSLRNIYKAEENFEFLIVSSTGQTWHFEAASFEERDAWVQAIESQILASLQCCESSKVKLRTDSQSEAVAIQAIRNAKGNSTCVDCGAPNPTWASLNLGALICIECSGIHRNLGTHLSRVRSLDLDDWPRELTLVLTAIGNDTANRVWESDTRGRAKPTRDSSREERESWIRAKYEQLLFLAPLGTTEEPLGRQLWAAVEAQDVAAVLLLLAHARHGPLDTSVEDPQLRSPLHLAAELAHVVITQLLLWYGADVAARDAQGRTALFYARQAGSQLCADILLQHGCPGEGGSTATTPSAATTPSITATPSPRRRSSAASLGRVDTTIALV

Assay [1] has as its target Agap2 (mouse (endogenous in adult mouse cortex)) (UniProt Q3UHD9). In words: affinity purification with mass spectrometry; immunoprecipitation of endogenous Agap2 with its antibody and protein G Dynabeads from the non-PSD (Triton-soluble) fraction of adult mouse cortex, 2 mg protein, 4 degrees Celsius overnight; washes 25 mM Tris pH 7.4, 150 mM NaCl, 1 mM EDTA, 1% Triton X-100; HPLC-MS/MS; positive if at least two peptides in at least two assays and absent in anti-GST controls.

Assay [2] shares this target. In words: affinity purification with mass spectrometry; immunoprecipitation of the endogenous bait (Agap2, Syngap1 or Kalirin) with its antibody and protein G Dynabeads from the PSD (DOC-soluble) fraction of adult mouse cortex, 2 mg protein, 4 degrees Celsius overnight; washes 25 mM Tris pH 7.4, 150 mM NaCl, 1 mM EDTA, 1% sodium deoxycholate; HPLC-MS/MS; positive if at least two peptides in at least two assays and absent in anti-GST controls.

No constants are given. Whether binding was seen depends on the method and setting. Binding seen in cells or lysates may run through a third protein. Here binding means that the protein was enriched with, or labelled near, the bait; the list need not be complete.

B1: Dab2ip (protein, UniProt Q3UHC7 1-1189)
chain: MSAGGNARKSTGRPSYYYRLLRRPRLQRQRSRSRSRTRPARESPQERPGSRRSLPGSMSEKNPSMEPSASTPFRVTGFLSRRLKGSIKRTKSQPKLDRNHSFRHILPGFRSAAAAAADNERSHLMPRLKESRSHESLLSPSSAVEALDLSMEEEVIIKPVHSSILGQDYCFEVTTSSGSKCFSCRSAAERDKWMENLRRAVHPNKDNSRRVEHILKLWVIEAKDLPAKKKYLCELCLDDVLYARTTSKLKTDNVFWGEHFEFHNLPPLRTVTVHLYRETDKKKKKERNSYLGLVSLPAASVAGRQFVEKWYPVVTPNPKGGKGPGPMIRIKARYQTVSILPMEMYKEFAEHITNHYLGLCAALEPILSAKTKEEMASALVHILQSTGKVKDFLTDLMMSEVDRCGDNEHLIFRENTLATKAIEEYLKLVGQKYLQDALGEFIKALYESDENCEVDPSKCSSADLPEHQGNLKMCCELAFCKIINSYCVFPRELKEVFASWRQECSSRGRPDISERLISASLFLRFLCPAIMSPSLFNLLQEYPDDRTARTLTLIAKVTQNLANFAKFGSKEEYMSFMNQFLEHEWTNMQRFLLEISNPETLSNTAGFEGYIDLGRELSSLHSLLWEAVSQLDQSVVSKLGPLPRILRDVHTALSTPGSGQLPGTNDLASTPGSGSSSVSAGLQKMVIENDLSGLIDFTRLPSPTPENKDLFFVTRSSGVQPSPARSSSYSEANEPDLQMANGSKSLSMVDLQDARTLDGEAGSPVGPDALPADGQVPATQLLAGWPARAAPVSLAGLATVRRAVPTPTTPGTSEGAPGRPQLLAPLSFQNPVYQMAAGLPLSPRGLGDSGSEGHSSLSSHSNSEELAAAAKLGSFSTAAEELARRPGELARRQMSLTEKGGQPTVPRQNSAGPQRRIDQPPPPPPPPPPAPRGRTPPTLLSTLQYPRPSSGTLASASPDWAGPGTRLRQQSSSSKGDSPELKPRAMHKQGPSPVSPNALDRTAAWLLTMNAQLLEDEGLGPDPPHRDRLRSKEELSQAEKDLAVLQDKLRISTKKLEEYETLFKCQEETTQKLVLEYQARLEEGEERLRRQQEDKDIQMKGIISRLMSVEEELKKDHAEMQAAVDSKQKIIDAQEKRIASLDAANARLMSALTQLKERYSMQARNGVSPTNPTKLQITENGEFRNSSNC
Turning to B1, the binding result in assay [1] and in assay [2] was “binds” in each case.

B2: Dclk1 (enzyme, UniProt Q9JLM8 1-756)
chain: MSFGRDMELEHFDERDKAQRYSRGSRVNGLPSPTHSAHCSFYRTRTLQTLSSEKKAKKVRFYRNGDRYFKGIVYAISPDRFRSFEALLADLTRTLSDNVNLPQGVRTIYTIDGLKKISSLDQLVEGESYVCGSIEPFKKLEYTKNVNPNWSVNVKTTSASRAVSSLATAKGGPSEVRENKDFIRPKLVTIIRSGVKPRKAVRILLNKKTAHSFEQVLTDITDAIKLDSGVVKRLYTLDGKQVMCLQDFFGDDDIFIACGPEKFRYQDDFLLDESECRVVKSTSYTKIASASRRGTTKSPGPSRRSKSPASTSSVNGTPGSQLSTPRSGKSPSPSPTSPGSLRKQRISQHGGSSTSLSSTKVCSSMDENDGPGEGDELGRRHSLQRGWRREESEEGFQIPATITERYKVGRTIGDGNFAVVKECIERSTAREYALKIIKKSKCRGKEHMIQNEVSILRRVKHPNIVLLIEEMDVPTELYLVMELVKGGDLFDAITSTSKYTERDASGMLYNLASAIKYLHSLNIVHRDIKPENLLVYEHQDGSKSLKLGDFGLATIVDGPLYTVCGTPTYVAPEIIAETGYGLKVDIWAAGVITYILLCGFPPFRGSGDDQEVLFDQILMGQVDFPSPYWDNVSDSAKELINMMLLVNVDQRFSAVQVLEHPWVNDDGLPENEHQLSVAGKIKKHFNTGPKPSSTAAGVSVIATTALDKERQVFRRRRNQDVRSRYKAQPAPPELNSESEDYSPSSSETVRSPNSPF
For B2, the binding entry in assay [1] is recorded as “binds”.
